Data on two molecules can be found in PMC5494301, “Functions of tryptophan residues in EWGWS insert of Plasmodium falciparum enolase” (FEBS Open Bio, 2017).

Results are given in words; binding and its absence hold for the method and conditions named. For some assays here: Tags and fused reporters may be left off the sequences shown.

Assay [1] concerns the target W105,107K variant of recombinant P. falciparum enolase, GST tag removed (Plasmodium falciparum) (UniProt Q27727). Description: SEC; proteins without the GST tag; Superdex‐200 HiLoad 16/600, 1–2 mg of protein in 2 mL buffer; 50 mM Tris‐HCl, 150 mM NaCl, 5 mM MgCl2 pH 7.5; dimer to monomers; both purified. (In gel filtration, larger molecules generally elute earlier.)
Assay [2] concerns the target W105,107A variant of recombinant P. falciparum enolase, GST tag removed (Plasmodium falciparum) (UniProt Q27727). The assay is described as above.

Regarding “W105,107K variant of recombinant P. falciparum enolase, GST tag removed (from UniProt Q27727 1-446) (enzyme)”, the binding result in assay [1] was “no binding (tested: 1–2 mg of protein in 2 mL buffer)”.

B1: W105,107A variant of recombinant P. falciparum enolase, GST tag removed (enzyme, Plasmodium falciparum, UniProt Q27727 1-446, looked up)
chain: MAHVITRINAREILDSRGNPTVEVDLETNLGIFRAAVPSGASTGIYEALELRDNDKSRYLGKGVQKAIKNINEIIAPKLIGMNCTEQKKIDNLMVEELDGSKNEAGASKSKLGANAILAISMAVCRAGAAPNKVSLYKYLAQLAGKKSDQMVLPVPCLNVINGGSHAGNKLSFQEFMIVPVGAPSFKEALRYGAEVYHTLKSEIKKKYGIDATNVGDEGGFAPNILNANEALDLLVTAIKSAGYEGKVKIAMDVAASEFYNSENKTYDLDFKTPNNDKSLVKTGAQLVDLYIDLVKKYPIVSIEDPFDQDDWENYAKLTAAIGKDVQIVGDDLLVTNPTRITKALEKNACNALLLKVNQIGSITEAIEACLLSQKNNWGVMVSHRSGETEDVFIADLVVALRTGQIKTGAPCRSERNAKYNQLLRIEESLGNNAVFAGEKFRLQLN
As to B1, in assay [2], the binding entry is recorded as “no binding (tested: ~ 2–3 mg·mL^−1)”.
